No constants are given. Whether binding was seen depends on the method and setting. In cells and extracts the contact can be indirect. Some binding calls cover weakened binding; strength is not graded here.
Target: BTB and CNC homology factor 1 (BACH1) (mouse (endogenous in murine thymocytes)) (UniProt P97302)
Assay: co-IP

Amino acid sequences for entries named in this document (tags omitted).
UniProt P97302: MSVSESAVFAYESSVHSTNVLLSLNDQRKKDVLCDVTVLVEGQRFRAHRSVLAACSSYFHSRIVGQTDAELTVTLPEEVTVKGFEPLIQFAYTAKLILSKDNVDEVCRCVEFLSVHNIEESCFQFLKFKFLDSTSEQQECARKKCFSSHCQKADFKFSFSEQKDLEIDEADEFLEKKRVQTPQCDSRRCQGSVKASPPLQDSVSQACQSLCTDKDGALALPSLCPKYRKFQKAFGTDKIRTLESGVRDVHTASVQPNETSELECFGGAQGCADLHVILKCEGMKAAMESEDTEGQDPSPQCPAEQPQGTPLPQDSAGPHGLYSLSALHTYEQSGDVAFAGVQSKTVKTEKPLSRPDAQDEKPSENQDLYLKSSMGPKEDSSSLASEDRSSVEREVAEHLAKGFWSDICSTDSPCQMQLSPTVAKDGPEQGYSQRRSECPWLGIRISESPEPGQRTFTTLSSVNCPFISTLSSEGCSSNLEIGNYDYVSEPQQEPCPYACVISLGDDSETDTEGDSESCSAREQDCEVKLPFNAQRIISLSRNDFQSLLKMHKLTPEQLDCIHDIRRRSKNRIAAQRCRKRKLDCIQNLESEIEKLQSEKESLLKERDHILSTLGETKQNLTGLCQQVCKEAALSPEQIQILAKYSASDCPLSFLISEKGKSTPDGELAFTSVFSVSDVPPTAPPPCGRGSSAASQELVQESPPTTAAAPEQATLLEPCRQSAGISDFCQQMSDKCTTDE
UniProt P54843: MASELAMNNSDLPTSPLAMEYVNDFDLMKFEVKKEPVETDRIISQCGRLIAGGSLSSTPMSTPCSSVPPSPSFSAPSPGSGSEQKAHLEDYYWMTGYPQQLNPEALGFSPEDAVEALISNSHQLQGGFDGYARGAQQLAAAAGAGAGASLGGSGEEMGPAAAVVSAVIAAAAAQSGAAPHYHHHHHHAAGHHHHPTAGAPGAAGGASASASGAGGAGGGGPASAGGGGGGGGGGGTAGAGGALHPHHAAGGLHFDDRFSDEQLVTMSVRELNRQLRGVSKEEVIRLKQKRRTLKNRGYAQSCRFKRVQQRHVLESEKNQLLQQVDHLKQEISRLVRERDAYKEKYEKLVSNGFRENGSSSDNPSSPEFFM

transcription factor cMAF (from UniProt P54843 1-370)
binding: binds
